Data as given in PubChem BioAssay AID1224826 (NIAID, 2016)
This is a random part of about 17,000 reagents. In the full data, about 1,110 (6.6%) are marked active. 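Active means lowered or raised reporter signal; replicate intensities are raw and not normalised per plate.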 Entries without a mark were called inactive. A reagent listed more than once was tested more than once; the source does not tell the runs apart. Reagent sequences are not shown.

Aim: 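Knock-downs that raise or lower Tnf reporter signal after endotoxin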 (primary screen)
Cells: RAW264.7 G9 macrophages from mouse bearing reporters for p65 (GFP) and the Tnf promoter (mCherry)
Knock-down reagent: siRNA pool against mouse genes, 100 nM
Duration: 16 h of LPS stimulation, after 2 days of siRNA transfection
Conditions: bacterial lipopolysaccharide (Salmonella minnesota R595), 10 ng/ml
Read-out: 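Nuclear mCherry signal of the Tnf promoter reporter measured by imaging after background removal, scaled to each plate median and turned into robust z-scores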
Direction: Tnf reporter robust z-score: higher = stronger Tnf promoter reporter signal after LPS; Tnf reporter intensity: higher = stronger Tnf promoter reporter signal
Rule for the call: 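Called active when robust z-score is at most -1.3, matching the median of the Tlr4 knock-down control, or over 3; control wells and wells with under 50 cells never active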
Meaning of the calls: active = Tnf reporter clearly lowered or raised; inactive = no clear change in Tnf reporter

| Tnf reporter robust z-score | fewer than 50 cells in well | Tnf reporter intensity, replicate 1 | Tnf reporter intensity, replicate 2 | gene |
| --- | --- | --- | --- | --- |
| 0.2 | enough cells in well | 248 | 247 | Moap1 |
| 2.9 | enough cells in well | 353 | 266 | Ncoa7 |
| 0.75 | enough cells in well | 331 | 286 | Foxf2 |
| -1.25 | enough cells in well | 160 | 82.8 | Golga3 |
| -1.03 | enough cells in well | 154 | 65.5 | NALP6 |
| 1.72 | enough cells in well | 359 | 313 | H3f3b |
| -1.52 (active) | enough cells in well | 95.7 | 52 | Eif4a1 |
| -0.14 | enough cells in well | 204 | 71.1 | Gm10413 |
| – | fewer than 50 cells per well; well left out of calls | 78.7 | 135 | Map3k2 |
| 0.88 | enough cells in well | 229 | 250 | AI463229 |
| 0.95 | enough cells in well | 349 | 270 | Msln |
| 0.58 | enough cells in well | 121 | 118 | Spock1 |
| -0.33 | enough cells in well | 115 | 62.3 | Msrb1 |
| -0.53 | enough cells in well | 192 | 128 | Klf2 |
| -0.38 | enough cells in well | 117 | 153 | Acot12 |
| – | fewer than 50 cells per well; well left out of calls | 105 | 64.6 | Id1 |
| -0.51 | enough cells in well | 267 | 147 | Serpinb9 |
| -0.69 | enough cells in well | 105 | 131 | Acy1 |
| -1.37 (active) | enough cells in well | 141 | 63.1 | Hs3st3b1 |
| 1.81 | enough cells in well | 133 | 204 | Rasl2-9 |
| -0.45 | enough cells in well | 204 | 181 | Chpt1 |
| 2.22 | enough cells in well | 257 | 152 | Oosp1 |
| – | fewer than 50 cells per well; well left out of calls | 68.2 | 28.6 | Mrm2 |
| -0.91 | enough cells in well | 127 | 106 | Acvr2a |
| 0.13 | enough cells in well | 252 | 233 | Nlrp10 |
| -1.44 (active) | enough cells in well | 101 | 70.8 | Necab2 |
| 0.76 | enough cells in well | 337 | 155 | Fgl2 |
| 2.83 | enough cells in well | 255 | 356 | Bok |
| 0.16 | enough cells in well | 286 | 235 | Gja3 |
| -0.14 | enough cells in well | 153 | 114 | Pcdha6 |
| 0.23 | enough cells in well | 273 | 143 | Fpr-rs4 |
| – | fewer than 50 cells per well; well left out of calls | 248 | 88.3 | Tmt1a2 |
| -0.71 | enough cells in well | 233 | 41 | Ptgir |
| 0.51 | enough cells in well | 287 | 289 | Fgg |
| 0.2 | enough cells in well | 278 | 207 | Cdc25c |
| -1.06 | enough cells in well | 125 | 111 | Gdf3 |
| -0.6 | enough cells in well | 222 | 93.4 | Fras1 |
| -0.32 | enough cells in well | 139 | 357 | Celsr3 |
| – | fewer than 50 cells per well; well left out of calls | 207 | 66.4 | Tmem134 |
| -1.79 (active) | enough cells in well | 47.6 | 36.2 | Sytl5 |

9 entries from above, ordered by “Tnf reporter intensity, replicate 1”, descending.
| Tnf reporter robust z-score | fewer than 50 cells in well | Tnf reporter intensity, replicate 1 | Tnf reporter intensity, replicate 2 | gene |
| --- | --- | --- | --- | --- |
| 2.22 | enough cells in well | 257 | 152 | Oosp1 |
| 0.13 | enough cells in well | 252 | 233 | Nlrp10 |
| -0.45 | enough cells in well | 204 | 181 | Chpt1 |
| -1.37 (active) | enough cells in well | 141 | 63.1 | Hs3st3b1 |
| 1.81 | enough cells in well | 133 | 204 | Rasl2-9 |
| -0.91 | enough cells in well | 127 | 106 | Acvr2a |
| -0.69 | enough cells in well | 105 | 131 | Acy1 |
| -1.44 (active) | enough cells in well | 101 | 70.8 | Necab2 |
| – | fewer than 50 cells per well; well left out of calls | 68.2 | 28.6 | Mrm2 |

The list goes on:
| Tnf reporter robust z-score | fewer than 50 cells in well | Tnf reporter intensity, replicate 1 | Tnf reporter intensity, replicate 2 | gene |
| --- | --- | --- | --- | --- |
| – | fewer than 50 cells per well; well left out of calls | 142 | 48.8 | Ccdc88b |
| 0.88 | enough cells in well | 245 | 213 | Avpr1b |
| 1.46 | enough cells in well | 281 | 511 | Avpr1b |
| 0.66 | enough cells in well | 284 | 191 | Kif16b |
| -0.61 | enough cells in well | 256 | 156 | Rab5a |
| -0.07 | enough cells in well | 166 | 172 | Dnah2 |
| -1.88 (active) | enough cells in well | 79.5 | 34.7 | Dync1li1 |
| -0.95 | enough cells in well | 77 | 98.9 | Rab39b |
| – | fewer than 50 cells per well; well left out of calls | 388 | 79.5 | Aldh16a1 |
| – | fewer than 50 cells per well; well left out of calls | 59 | 29 | Znrf4 |
| 1 | enough cells in well | 229 | 91.4 | Atxn7l1 |
| -0.2 | enough cells in well | 110 | 97 | Tmem47 |
| 0.12 | enough cells in well | 190 | 148 | 5730405M06RIK |
| 0.04 | enough cells in well | 132 | 131 | Rab12 |
| -1.15 | enough cells in well | 104 | 230 | Glp2r |
| -1.04 | enough cells in well | 136 | 75.1 | Mxd3 |
| 0.04 | enough cells in well | 210 | 67.9 | Cfap43 |
| -1.44 (active) | enough cells in well | 124 | 63.8 | Elmod2 |
| 0.32 | enough cells in well | 297 | 249 | Sfrp5 |
| -0.64 | enough cells in well | 159 | 116 | Dcx |
| -0.2 | enough cells in well | 204 | 204 | Cyba |
| -1.33 (active) | enough cells in well | 142 | 24.7 | Auts2 |
| -0.45 | enough cells in well | 130 | 129 | Bnc1 |
| -0.05 | enough cells in well | 298 | 171 | Cyb5r4 |
| -0.57 | enough cells in well | 152 | 185 | Zfp825 |
| – | fewer than 50 cells per well; well left out of calls | 192 | 21.6 | Veph1 |
| -0.05 | enough cells in well | 242 | 80.1 | 1110059G10Rik |
| -0.03 | enough cells in well | 205 | 307 | Or1e1 |
| – | fewer than 50 cells per well; well left out of calls | 0 | 44.2 | Or52r1 |
| 0.99 | enough cells in well | 365 | 262 | Tlnrd1 |
| 0.44 | enough cells in well | 153 | 89 | Vmn2r42 |
| -0.91 | enough cells in well | 83.8 | 82.5 | Vmn1r80 |
| 0.07 | enough cells in well | 163 | 170 | Sntn |
| 0.87 | enough cells in well | 256 | 179 | Atp6v1b2 |
| 0.98 | enough cells in well | 233 | 290 | Abcd2 |
